Publication PMC12670160, “A drug-repurposing screen of FDA- and EMA-approved drugs identifies two NF-κB inhibitors active against eumycetoma” (Journal of Antimicrobial Chemotherapy, 2025)
Structures can show the parent of a compound that is named as a salt. Among all 5,300 compounds or so, about 130 (2.5%) showed an effect of 50% or more. The list shows a part of the results.

Test system: M. mycetomatis strain mm55
Settings: primary screen, metabolic activity vs growth control; 96 h, 2 µM; inhibitor

| Compound | % viability [%] |
| --- | --- |
| C=CC1=C(C)c2cc3[nH]c(cc4nc(cc5[nH]c(cc1n2)c(C)c5CCC(=O)O)C(CCC(=O)O)=C4C)c(C)c3C=C [ONC0000685, protoporphyrin ix] | 98.29 |
| CC1CNc2c(cccc2S(=O)(=O)N[C@@H](CCCNC(=N)N)C(=O)N2CC[C@@H](C)C[C@@H]2C(=O)O)C1 (stereo partly drawn) [ONC0004592, argatroban] | 77.15 |
| CN(C)CCN(Cc1ccccc1)c1ccccn1 [ONC0003240, tripelennamine citrate] | 103.5 |
| COc1ccccc1N1CCN(CCN(C(=O)C2CCCCC2)c2ccccn2)CC1 [ONC0005214, way100635 maleate] | 121.7 |
| CN1C(=O)CC(c2ccccc2)C1=O (stereo not drawn) [ONC0003880, phensuccimide] | 62.12 |
| O=C(NCCCN1CCC2(CC1)OCc1ccccc12)[C@H]1CCCN1Cc1ccccc1 [ONC0000855, banorl24] | 58.7 |
| Nc1ccn([C@@H]2O[C@H](CO)[C@@H](O)C2(F)F)c(=O)n1 [ONC0001279, gemcitabine] | 63.43 |
| C[C@@H](O)[C@H]1C(=O)N2C(C(=O)[O-])=C([C@H]3CCCO3)S[C@H]12.C[C@@H](O)[C@H]1C(=O)N2C(C(=O)[O-])=C([C@H]3CCCO3)S[C@H]12.O.O.O.O.O.[Na+].[Na+] [ONC0000335, faropenem sodium hemipentahydrate] | 95.52 |
| N#Cc1nn(-c2c(Cl)cc(C(F)(F)F)cc2Cl)c(N)c1[S+]([O-])C(F)(F)F (stereo not drawn) [ONC0003912, fipronil] | 85.63 |
| O=C/C=C/c1ccccc1 [ONC0003660, cinnamaldehyde] | 81.58 |
| O=C(O)C(=O)Nc1cccc(-c2nnn[nH]2)c1 [ONC0003654, acitazanolast] | 75.36 |
| Cc1c(C2CCN(CCc3ccccc3)CC2)noc1-c1ccc(Cl)cc1 [ONC0001476, l741742] | 80.55 |
| CCNC(=O)c1[nH]nc(-c2cc(Cl)c(O)cc2O)c1-c1ccc(OC)cc1 [ONC0005116, ver49009] | 88.78 |
| CCC(CC)n1ccc2c(C(=O)NCc3c(C)cc(C)[nH]c3=O)cc(C#N)cc21 [ONC0001917, ei1] | 88.07 |
| C[C@H](NC(=O)/C(C#N)=C/c1cccc(Br)n1)c1ccccc1 [ONC0005269, wp1066] | 145.9 |
| CC(C)c1ccc(NC(=O)Cn2cnc3c2c(=O)n(C)c(=O)n3C)cc1 [ONC0005248, hc030031] | 89.98 |
| O=C(O)c1cc(O)c2c3nc4ccccc4oc-3cc(=O)c2n1 [ONC0003322, pirenoxine] | 84.14 |
| CC(C)C(N)=O [ONC0003586, isobutyramide] | 107 |
| Cc1ccccc1NC(=N)Nc1ccccc1C [ONC0000016, ditolylguanidine] | 74.3 |
| O=C(NCCN1CCN(c2ncccn2)CC1)C12CC3CC(CC(C3)C1)C2 [ONC0002342, adatanserin] | 65.36 |

Gathered by group: the compounds so far with a carbonyl joined to an NH by a bond outside any ring.

| Compound | % viability [%] |
| --- | --- |
| O=C(NCCCN1CCC2(CC1)OCc1ccccc12)[C@H]1CCCN1Cc1ccccc1 [ONC0000855, banorl24] | 58.7 |
| O=C(O)C(=O)Nc1cccc(-c2nnn[nH]2)c1 [ONC0003654, acitazanolast] | 75.36 |
| CCNC(=O)c1[nH]nc(-c2cc(Cl)c(O)cc2O)c1-c1ccc(OC)cc1 [ONC0005116, ver49009] | 88.78 |
| CCC(CC)n1ccc2c(C(=O)NCc3c(C)cc(C)[nH]c3=O)cc(C#N)cc21 [ONC0001917, ei1] | 88.07 |
| C[C@H](NC(=O)/C(C#N)=C/c1cccc(Br)n1)c1ccccc1 [ONC0005269, wp1066] | 145.9 |
| CC(C)c1ccc(NC(=O)Cn2cnc3c2c(=O)n(C)c(=O)n3C)cc1 [ONC0005248, hc030031] | 89.98 |
| CC(C)C(N)=O [ONC0003586, isobutyramide] | 107 |
| O=C(NCCN1CCN(c2ncccn2)CC1)C12CC3CC(CC(C3)C1)C2 [ONC0002342, adatanserin] | 65.36 |

Some of the entries above, set out differently.
Compound,% viability [%]
"C[C@@H](O)[C@H]1C(=O)N2C(C(=O)[O-])=C([C@H]3CCCO3)S[C@H]12.C[C@@H](O)[C@H]1C(=O)N2C(C(=O)[O-])=C([C@H]3CCCO3)S[C@H]12.O.O.O.O.O.[Na+].[Na+] [ONC0000335, faropenem sodium hemipentahydrate]",95.52
"Cc1ccccc1NC(=N)Nc1ccccc1C [ONC0000016, ditolylguanidine]",74.3

(more compounds)

| Compound | % viability [%] |
| --- | --- |
| CCOC(=O)[C@@H](C)Oc1ccc(Oc2nc3ccc(Cl)cc3o2)cc1 [ONC0001136, fenoxaproppethyl] | 62.16 |
| COc1ccncc1C(=O)NC(=O)Nc1ccc(-c2ccccc2)c(C(F)(F)F)c1 [ONC0000985, s1p1 agonist iii] | 70.46 |
| CC(C1=C(CCN(C)C)Cc2ccccc21)c1ccccn1 (stereo not drawn) [ONC0004066, dimetindene] | 97.76 |
| CC(C)(C)NCC(O)COc1ccc(NC(=O)NC2CCCCC2)cc1 (stereo not drawn) [ONC0003803, talinolol] | 63.39 |
| CC(OC(=O)OC1CCCCC1)OC(=O)C1=C(CSc2nnnn2CCN(C)C)CS[C@@H]2[C@H](NC(=O)Cc3csc(N)n3)C(=O)N12 (stereo partly drawn) [ONC0002150, cefotiam hexetil hydrochloride] | 76.82 |
| CCNC(=O)Nc1ccc(-c2nc3c(c(N4CCOC[C@@H]4C)n2)CCN(C2COC2)C3)cc1 [ONC0005017, gdc0349] | 89.46 |
| O=C(O)c1ccccc1NC(=O)C12CC3CC(CC(C3)C1)C2 [ONC0003710, anthranilicacid] | 110.1 |
| CCCN(CCC)S(=O)(=O)c1ccc(C(=O)O)cc1 [ONC0000488, probenecid] | 54.23 |
| CC[C@@]1(O)C(=O)OCc2c1cc1n(c2=O)Cc2cc3ccccc3nc2-1 [ONC0002713, camptothecin] | 62.06 |
| CCN(CCNC(=O)Nc1ccccc1Br)c1cccc(C)c1 [ONC0000709, sb452533] | 78.96 |
| C[C@]12CC[C@@H]3c4ccc(O)cc4CC[C@H]3[C@@H]1CC[C@@H]2O [ONC0000707, estradiol] | 85.31 |
| CCCCCOc1c(OC)ccc2cc(C(=O)NCc3ccc4c(c3)OCO4)c(=O)[nH]c12 [ONC0003561, jte907] | 130 |
| CN(C)CC/C=C1/c2ccccc2Sc2ccc(Cl)cc21 [ONC0002875, chlorprothixene hydrochloride] | 112.7 |
| OC(CN1CCC(Cc2ccc(F)cc2)CC1)c1ccc(Cl)cc1 (stereo not drawn) [ONC0000141, eliprodil] | 106.1 |
| CC(=O)[C@H]1CC[C@H]2[C@@H]3CCC4=CC(=O)CC[C@]4(C)[C@H]3CC[C@]12C [ONC0000479, progesterone] | 66.95 |
| CN[C@@H]1[C@@H](O[C@H]2O[C@H](CO)[C@@H](N)[C@H](O)[C@H]2O)O[C@H]2C[C@@H](N)[C@H](O[C@H]3[C@H](O)[C@@H](O)[C@H](N)C[C@@H]3N)O[C@@H]2[C@@H]1O [ONC0004303, apramycin sulfate] | 95.92 |
| O=C(O)CSc1nnc(Br)n1-c1ccc(C2CC2)c2ccccc12 [ONC0002543, lesinurad] | 74.09 |
| CN[C@@H](C)C(=O)N[C@H](C(=O)N1CCC[C@H]1C(=O)N[C@H]1c2ccccc2C[C@H]1OCC#CC#CCO[C@@H]1Cc2ccccc2[C@@H]1NC(=O)[C@@H]1CCCN1C(=O)[C@@H](NC(=O)[C@H](C)NC)C1CCCCC1)C1CCCCC1 [ONC0002200, azd5582] | 64.8 |
| C[C@@H]1O[C@@]2(CS1)CN1CCC2CC1.C[C@H]1O[C@]2(CS1)CN1CCC2CC1.Cl [ONC0002680, cevimeline] | 67.14 |
| Cc1cc(C(=O)N2Cc3cnn(C)c3Nc3ccccc32)ccc1CNC(=O)N1CCC[C@H]1C(=S)N1CCCN(C)CC1 [ONC0002553, tcot39] | 66.2 |

| Compound | % viability [%] |
| --- | --- |
| COc1cc2c(Nc3ccc(Cl)c(Cl)c3F)ncnc2cc1OC[C@@H]1C[C@@H]2CN(C)C[C@@H]2C1 [ONC0000890, tesevatinib] | 76.06 |
| Cn1c(COc2ccc(CC3SC(=O)NC3=O)cc2)nc2ccccc2c1=O (stereo not drawn) [ONC0001763, balaglitazone] | 106 |
| Cc1cc(=O)oc2c(C=O)c(O)ccc12 [ONC0004804, 4ü¾˜¶Œ¼8c] | 66.99 |
| COc1ccc2[nH]c([S+]([O-])Cc3ncc(C)c(OC)c3C)nc2n1 (stereo not drawn) [ONC0004125, tenatoprazole] | 105.3 |
| CCOC(=O)CCNc1cc(N2CCc3ccccc3CC2)nc(-c2ccccn2)n1 [ONC0005162, gsk j4 hcl] | 107.7 |
| O=C(O)CCCCC(=O)O [ONC0003733, adipicacid] | 129.5 |
| C=C1CC[C@H](O)C/C1=C/C=C1\CCC[C@]2(C)[C@@H]([C@H](C)CCCC(C)(C)O)CC[C@@H]12 [ONC0004584, calcifediol] | 84.04 |
| O=C1CCC2CCC(=O)N12 [ONC0002137, rolziracetam] | 75.98 |
| CCC(c1ccccc1)c1c(O)c2ccccc2oc1=O (stereo not drawn) [ONC0003767, phenprocoumon] | 91.55 |
| O=C(NCCS(=O)(=O)c1ccc(C(F)(F)F)cn1)c1ccc(Cl)cc1 [ONC0004524, gsk3787] | 83.94 |
| CCn1c(=O)n([C@H]2CCCN(c3nccc(-c4cc5ccccc5o4)n3)C2)c2ccccc21 [ONC0001458, tcf2] | 58.53 |
| CC(=O)N[C@@H](CC(C)C)C(=O)O [ONC0000672, acetyllleucine] | 92.2 |
| CC(C)[C@H]1C(=O)N[C@@H](CCCN=C(N)N)C(=O)NCC(=O)N[C@@H](CC(=O)O)C(=O)N[C@H](Cc2ccccc2)C(=O)N1C [ONC0004350, cilengitide trifluoroacetate] | 126.5 |
| CC(C)(C)Sc1c(CC(C)(C)C(=O)O)n(Cc2ccc(Cl)cc2)c2ccc(OCc3ccc4ccccc4n3)cc12 [ONC0000944, mk591 free acid] | 65.52 |
| OC(c1ccccc1)C1CCN(CCc2ccccc2)CC1 (stereo not drawn) [ONC0000786, mdl11939] | 80.2 |
| Cc1c[nH]c2ncnc(N3CCC(CN)(C(=O)Nc4cccc(OC(=O)N(C)C)c4)CC3)c12 [ONC0001102, lx7101] | 57.95 |
| CC(=O)c1cnc2ccc(-c3cc(Cl)c(O)c(Cl)c3)nc2c1N[C@H]1CC[C@H](CN(C)C)CC1 [ONC0000872, otssp167 hydrochloride] | 72.3 |
| N#CC(Cc1ccc(O)cc1)c1ccc(O)cc1 (stereo not drawn) [ONC0001690, diarylpropionitrile] | 57.89 |
| O=C1NC(=O)[C@@]2(CCOc3ccc(F)cc32)N1 [ONC0001971, sorbinil] | 115 |
| Nc1nc(F)nc2c1ncn2[C@@H]1O[C@H](CO)[C@@H](O)[C@@H]1O [ONC0000009, fludarabine] | 119.4 |
